Results are given in words; binding and its absence hold for the method and conditions named. For some assays here: In cells and extracts the contact can be indirect. Some results given as binding are weak or reduced against the parent protein; the word gives no strength. Where a sequence is shown, tags or fusion partners need not be part of it.
Assays:
[1] = biological target: T1, OGT tagged with GFP (endogenously on both Xs) (mouse (endogenous in LF2 XX mESCs)) (UniProt Q8CGY8); experiment: co-IP
T1 sequence: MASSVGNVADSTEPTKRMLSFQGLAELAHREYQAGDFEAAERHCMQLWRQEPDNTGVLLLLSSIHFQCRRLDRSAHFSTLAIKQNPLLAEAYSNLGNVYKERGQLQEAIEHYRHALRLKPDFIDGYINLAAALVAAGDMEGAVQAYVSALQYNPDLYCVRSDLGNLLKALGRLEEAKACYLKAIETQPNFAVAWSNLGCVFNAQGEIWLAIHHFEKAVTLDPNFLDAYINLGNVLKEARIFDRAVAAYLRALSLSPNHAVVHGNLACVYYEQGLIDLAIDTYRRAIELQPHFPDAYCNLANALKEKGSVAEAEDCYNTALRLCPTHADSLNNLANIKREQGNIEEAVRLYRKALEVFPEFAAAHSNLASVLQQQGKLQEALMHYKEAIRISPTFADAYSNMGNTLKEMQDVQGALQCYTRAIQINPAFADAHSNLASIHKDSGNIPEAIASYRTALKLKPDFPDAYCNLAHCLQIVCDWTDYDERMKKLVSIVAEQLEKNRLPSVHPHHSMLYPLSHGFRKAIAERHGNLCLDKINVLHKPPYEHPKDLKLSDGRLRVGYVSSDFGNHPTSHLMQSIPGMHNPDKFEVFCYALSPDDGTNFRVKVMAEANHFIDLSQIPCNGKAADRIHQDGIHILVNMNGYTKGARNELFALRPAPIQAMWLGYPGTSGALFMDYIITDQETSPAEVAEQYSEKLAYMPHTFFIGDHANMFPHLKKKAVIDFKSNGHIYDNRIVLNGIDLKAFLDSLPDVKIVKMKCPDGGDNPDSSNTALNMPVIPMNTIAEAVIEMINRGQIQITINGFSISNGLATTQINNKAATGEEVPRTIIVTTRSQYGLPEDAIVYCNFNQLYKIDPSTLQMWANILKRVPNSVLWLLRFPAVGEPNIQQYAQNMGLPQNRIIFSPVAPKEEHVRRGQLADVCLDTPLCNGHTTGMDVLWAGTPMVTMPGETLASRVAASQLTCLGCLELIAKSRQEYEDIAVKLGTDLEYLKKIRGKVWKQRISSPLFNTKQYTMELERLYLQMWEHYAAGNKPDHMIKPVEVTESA

Protein sequences, listed by entry. Tags and fused reporters are not part of them.
UniProt Q8BG87, whole entry: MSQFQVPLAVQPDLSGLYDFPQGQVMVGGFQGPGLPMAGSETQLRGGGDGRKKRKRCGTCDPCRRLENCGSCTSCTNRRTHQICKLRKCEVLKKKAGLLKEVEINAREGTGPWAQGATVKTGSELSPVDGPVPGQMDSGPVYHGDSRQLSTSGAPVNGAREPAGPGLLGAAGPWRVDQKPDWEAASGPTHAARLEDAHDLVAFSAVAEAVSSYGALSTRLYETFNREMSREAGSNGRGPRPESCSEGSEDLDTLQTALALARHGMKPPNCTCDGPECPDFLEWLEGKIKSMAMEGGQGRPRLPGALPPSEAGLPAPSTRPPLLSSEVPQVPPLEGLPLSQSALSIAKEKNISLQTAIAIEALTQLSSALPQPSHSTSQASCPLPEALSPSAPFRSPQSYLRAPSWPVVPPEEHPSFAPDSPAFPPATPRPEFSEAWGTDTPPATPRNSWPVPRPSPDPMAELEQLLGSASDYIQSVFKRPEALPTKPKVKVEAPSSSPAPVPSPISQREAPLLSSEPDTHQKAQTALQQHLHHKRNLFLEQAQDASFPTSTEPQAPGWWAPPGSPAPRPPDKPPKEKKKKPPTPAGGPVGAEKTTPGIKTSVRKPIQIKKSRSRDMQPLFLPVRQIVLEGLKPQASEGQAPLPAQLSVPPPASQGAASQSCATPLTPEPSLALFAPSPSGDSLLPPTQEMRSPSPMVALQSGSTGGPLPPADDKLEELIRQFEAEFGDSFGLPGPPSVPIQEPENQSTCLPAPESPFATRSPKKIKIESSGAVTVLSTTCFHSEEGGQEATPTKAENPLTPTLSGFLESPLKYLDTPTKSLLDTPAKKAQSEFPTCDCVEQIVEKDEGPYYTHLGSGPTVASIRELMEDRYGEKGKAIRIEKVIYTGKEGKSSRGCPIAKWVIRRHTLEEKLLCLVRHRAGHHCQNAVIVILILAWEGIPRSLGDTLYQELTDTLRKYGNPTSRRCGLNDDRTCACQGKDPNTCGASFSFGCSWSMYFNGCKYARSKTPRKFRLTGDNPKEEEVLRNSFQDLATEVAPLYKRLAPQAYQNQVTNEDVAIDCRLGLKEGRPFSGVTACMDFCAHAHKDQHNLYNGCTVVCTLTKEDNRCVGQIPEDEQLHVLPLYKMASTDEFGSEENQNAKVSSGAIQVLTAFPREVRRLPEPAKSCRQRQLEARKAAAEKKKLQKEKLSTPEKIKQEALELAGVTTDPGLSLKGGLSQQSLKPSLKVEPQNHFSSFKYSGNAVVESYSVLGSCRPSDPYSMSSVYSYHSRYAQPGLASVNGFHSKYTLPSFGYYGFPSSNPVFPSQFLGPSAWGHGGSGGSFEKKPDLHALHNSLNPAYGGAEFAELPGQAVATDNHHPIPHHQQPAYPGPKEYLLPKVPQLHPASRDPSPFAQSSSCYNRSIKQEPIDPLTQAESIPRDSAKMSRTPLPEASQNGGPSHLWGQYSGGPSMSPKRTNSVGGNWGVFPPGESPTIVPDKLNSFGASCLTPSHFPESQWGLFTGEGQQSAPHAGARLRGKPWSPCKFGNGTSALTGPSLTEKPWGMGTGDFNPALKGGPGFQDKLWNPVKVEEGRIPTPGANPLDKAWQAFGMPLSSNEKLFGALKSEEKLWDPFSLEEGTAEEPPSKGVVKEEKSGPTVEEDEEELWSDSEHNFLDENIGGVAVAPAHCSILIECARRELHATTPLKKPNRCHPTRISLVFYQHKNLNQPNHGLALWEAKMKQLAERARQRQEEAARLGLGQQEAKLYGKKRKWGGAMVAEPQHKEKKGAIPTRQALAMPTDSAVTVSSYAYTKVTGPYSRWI

[2] = biological target: T2, O-linked N-acetylglucosamine (O-GlcNAc) Transferase (OGT) (mouse (endogenous in mESCs)) (UniProt Q8CGY8); experiment: SEC
T2 sequence: T1 sequence

For “TET3 (from UniProt Q8BG87 1-1803) (enzyme)”, which binding [1] is on record?
Its binding is “binds”.

And the binding [2]?
Its binding is “binds”.

— article doi:10.1101/2021.06.19.449113
